Results on 5 molecules are retold here after article PMC10846047.

No constants are given. Whether binding was seen depends on the method and setting. In cells and extracts the contact can be indirect. These calls come from enrichment with a bait or labelling near it, and not all partners need be listed.

Assay [1] has as its target HA-tagged envelope protein 2 (HA-E2) of HCV Jc1 (hepatitis C virus Jc1 (genotype 2a)). Nature of the assay: affinity purification with mass spectrometry; as a1, cells replicating the HA-E2 virus with core residues 69-72 changed to alanines (core C69-72A); control: the cognate untagged mutant virus; second data set.
The target in assay [2] is double HA-epitope tagged p7 (HAHA-p7) of HCV Jc1 (hepatitis C virus Jc1 (genotype 2a)). As to the kind of experiment: affinity purification with mass spectrometry; anti-HA agarose, overnight 4 °C, on pre-cleared lysates (50 mM HEPES pH 7.4, 150 mM NaCl, 10% glycerol, 1% NP-40, 1 mM CaCl2) of Huh-7.5 cells 48 h after transfection with HA-tagged Jc1 RNA of parental background (HA-E2, HAHA-p7, HA-NS4B Q31R) or of Huh-7.5/HA-ApoE cells with Jc1; label-free LC-MS/MS against untagged controls; two data sets for HA-E2.

Assay [3] deals with HA-tagged envelope protein 2 (HA-E2) of HCV Jc1 (hepatitis C virus Jc1 (genotype 2a)). As to the kind of experiment: affinity purification with mass spectrometry; as a1, cells replicating the HA-E2 virus with the core P138A P143A double mutation (core DP); control: the cognate untagged mutant virus; second data set.
Assay [4] shares this target. Nature of the assay: affinity purification with mass spectrometry; anti-HA agarose, overnight 4 °C, on pre-cleared lysates (50 mM HEPES pH 7.4, 150 mM NaCl, 10% glycerol, 1% NP-40, 1 mM CaCl2) of Huh-7.5 cells 48 h after transfection with HA-tagged Jc1 RNA of parental background (HA-E2, HAHA-p7, HA-NS4B Q31R) or of Huh-7.5/HA-ApoE cells with Jc1; label-free LC-MS/MS against untagged controls; two data sets for HA-E2.

For assay [5] the target is unchanged. Nature of the assay: affinity purification with mass spectrometry; as a1, cells replicating the HA-E2 virus with the E1 K179Q mutation; control: the cognate untagged mutant virus; second data set.

B1: SDF2L1 (protein, UniProt Q9HCN8 29-221)
chain: AKTGAELVTCGSVLKLLNTHHRVRLHSHDIKYGSGSGQQSVTGVEASDDANSYWRIRGGSEGGCPRGSPVRCGQAVRLTHVLTGKNLHTHHFPSPLSNNQEVSAFGEDGEGDDLDLWTVRCSGQHWEREAAVRFQHVGTSVFLSVTGEQYGSPIRGQHEVHGMPSANTHNTWKAMEGIFIKPSVEPSAGHDEL
For B1, the binding entry in assay [1] is “binds”.

B2: SEC11 homolog A, the signal peptidase complex subunit SEC11A (protein, UniProt P67812 1-179)
chain: MLSLDFLDDVRRMNKRQLYYQVLNFGMIVSSALMIWKGLMVITGSESPIVVVLSGSMEPAFHRGDLLFLTNRVEDPIRVGEIVVFRIEGREIPIVHRVLKIHEKQNGHIKFLTKGDNNAVDDRGLYKQGQHWLEKKDVVGRARGFVPYIGIVTILMNDYPKFKYAVLFLLGLFVLVHRE
As to B2, in assay [2], the binding entry is “binds”.

B3: STT3A (protein, UniProt P46977 1-705)
chain: MTKFGFLRLSYEKQDTLLKLLILSMAAVLSFSTRLFAVLRFESVIHEFDPYFNYRTTRFLAEEGFYKFHNWFDDRAWYPLGRIIGGTIYPGLMITSAAIYHVLHFFHITIDIRNVCVFLAPLFSSFTTIVTYHLTKELKDAGAGLLAAAMIAVVPGYISRSVAGSYDNEGIAIFCMLLTYYMWIKAVKTGSICWAAKCALAYFYMVSSWGGYVFLINLIPLHVLVLMLTGRFSHRIYVAYCTVYCLGTILSMQISFVGFQPVLSSEHMAAFGVFGLCQIHAFVDYLRSKLNPQQFEVLFRSVISLVGFVLLTVGALLMLTGKISPWTGRFYSLLDPSYAKNNIPIIASVSEHQPTTWSSYYFDLQLLVFMFPVGLYYCFSNLSDARIFIIMYGVTSMYFSAVMVRLMLVLAPVMCILSGIGVSQVLSTYMKNLDISRPDKKSKKQQDSTYPIKNEVASGMILVMAFFLITYTFHSTWVTSEAYSSPSIVLSARGGDGSRIIFDDFREAYYWLRHNTPEDAKVMSWWDYGYQITAMANRTILVDNNTWNNTHISRVGQAMASTEEKAYEIMRELDVSYVLVIFGGLTGYSSDDINKFLWMVRIGGSTDTGKHIKENDYYTPTGEFRVDREGSPVLLNCLMYKMCYYRFGQVYTEAKRPPGFDRVRNAEIGNKDFELDVLEEAYTTEHWLVRIYKVKDLDNRGLSRT
For the molecule B3, the binding result in assay [3] and in assay [4] was “binds” in each case.

B4: sodium bicarbonate cotransporter 3 SLC4A7 (protein, UniProt Q9Y6M7 1-1214)
chain: MERFRLEKKLPGPDEEAVVDLGKTSSTVNTKFEKEELESHRAVYIGVHVPFSKESRRRHRHRGHKHHHRRRKDKESDKEDGRESPSYDTPSQRVQFILGTEDDDEEHIPHDLFTEMDELCYRDGEEYEWKETARWLKFEEDVEDGGDRWSKPYVATLSLHSLFELRSCILNGTVMLDMRASTLDEIADMVLDNMIASGQLDESIRENVREALLKRHHHQNEKRFTSRIPLVRSFADIGKKHSDPHLLERNGEGLSASRHSLRTGLSASNLSLRGESPLSLLLGHLLPSSRAGTPAGSRCTTPVPTPQNSPPSSPSISRLTSRSSQESQRQAPELLVSPASDDIPTVVIHPPEEDLEAALKGEEQKNEENVDLTPGILASPQSAPGNLDNSKSGEIKGNGSGGSRENSTVDFSKVDMNFMRKIPTGAEASNVLVGEVDFLERPIIAFVRLAPAVLLTGLTEVPVPTRFLFLLLGPAGKAPQYHEIGRSIATLMTDEIFHDVAYKAKDRNDLLSGIDEFLDQVTVLPPGEWDPSIRIEPPKSVPSQEKRKIPVFHNGSTPTLGETPKEAAHHAGPELQRTGRLFGGLILDIKRKAPFFLSDFKDALSLQCLASILFLYCACMSPVITFGGLLGEATEGRISAIESLFGASLTGIAYSLFAGQPLTILGSTGPVLVFEKILYKFCRDYQLSYLSLRTSIGLWTSFLCIVLVATDASSLVCYITRFTEEAFAALICIIFIYEALEKLFDLGETYAFNMHNNLDKLTSYSCVCTEPPNPSNETLAQWKKDNITAHNISWRNLTVSECKKLRGVFLGSACGHHGPYIPDVLFWCVILFFTTFFLSSFLKQFKTKRYFPTKVRSTISDFAVFLTIVIMVTIDYLVGVPSPKLHVPEKFEPTHPERGWIISPLGDNPWWTLLIAAIPALLCTILIFMDQQITAVIINRKEHKLKKGAGYHLDLLMVGVMLGVCSVMGLPWFVAATVLSISHVNSLKVESECSAPGEQPKFLGIREQRVTGLMIFILMGLSVFMTSVLKFIPMPVLYGVFLYMGVSSLKGIQLFDRIKLFGMPAKHQPDLIYLRYVPLWKVHIFTVIQLTCLVLLWVIKVSAAAVVFPMMVLALVFVRKLMDLCFTKRELSWLDDLMPESKKKKEDDKKKKEKEEAERMLQDDDDTVHLPFEGGSLLQIPVKALKYSPDKPVSVKISFEDEPRKKYVDAETSL
For the molecule B4, the binding result in assay [5] was “binds”.

B5: STT3 oligosaccharyltransferase complex catalytic subunit B (STT3B) (protein, UniProt Q8TCJ2 1-826)
chain: MAEPSAPESKHKSSLNSSPWSGLMALGNSRHGHHGPGAQCAHKAAGGAAPPKPAPAGLSGGLSQPAGWQSLLSFTILFLAWLAGFSSRLFAVIRFESIIHEFDPWFNYRSTHHLASHGFYEFLNWFDERAWYPLGRIVGGTVYPGLMITAGLIHWILNTLNITVHIRDVCVFLAPTFSGLTSISTFLLTRELWNQGAGLLAACFIAIVPGYISRSVAGSFDNEGIAIFALQFTYYLWVKSVKTGSVFWTMCCCLSYFYMVSAWGGYVFIINLIPLHVFVLLLMQRYSKRVYIAYSTFYIVGLILSMQIPFVGFQPIRTSEHMAAAGVFALLQAYAFLQYLRDRLTKQEFQTLFFLGVSLAAGAVFLSVIYLTYTGYIAPWSGRFYSLWDTGYAKIHIPIIASVSEHQPTTWVSFFFDLHILVCTFPAGLWFCIKNINDERVFVALYAISAVYFAGVMVRLMLTLTPVVCMLSAIAFSNVFEHYLGDDMKRENPPVEDSSDEDDKRNQGNLYDKAGKVRKHATEQEKTEEGLGPNIKSIVTMLMLMLLMMFAVHCTWVTSNAYSSPSVVLASYNHDGTRNILDDFREAYFWLRQNTDEHARVMSWWDYGYQIAGMANRTTLVDNNTWNNSHIALVGKAMSSNETAAYKIMRTLDVDYVLVIFGGVIGYSGDDINKFLWMVRIAEGEHPKDIRESDYFTPQGEFRVDKAGSPTLLNCLMYKMSYYRFGEMQLDFRTPPGFDRTRNAEIGNKDIKFKHLEEAFTSEHWLVRIYKVKAPDNRETLDHKPRVTNIFPKQKYLSKKTTKRKRGYIKNKLVFKKGKKISKKTV
B5: the binding result in assay [3], in assay [4] and in assay [2] was “binds” in each case.
